Experimental data from publication PMC11721311.
Results are given in words; binding and its absence hold for the method and conditions named. Binding seen in cells or lysates may run through a third protein. Some results given as binding are weak or reduced against the parent protein; the word gives no strength. Tags and fused reporters may be left off the sequences shown.

Protein sequences, listed by entry. Tags and fused reporters are not part of them.
UniProt Q9Y2H1: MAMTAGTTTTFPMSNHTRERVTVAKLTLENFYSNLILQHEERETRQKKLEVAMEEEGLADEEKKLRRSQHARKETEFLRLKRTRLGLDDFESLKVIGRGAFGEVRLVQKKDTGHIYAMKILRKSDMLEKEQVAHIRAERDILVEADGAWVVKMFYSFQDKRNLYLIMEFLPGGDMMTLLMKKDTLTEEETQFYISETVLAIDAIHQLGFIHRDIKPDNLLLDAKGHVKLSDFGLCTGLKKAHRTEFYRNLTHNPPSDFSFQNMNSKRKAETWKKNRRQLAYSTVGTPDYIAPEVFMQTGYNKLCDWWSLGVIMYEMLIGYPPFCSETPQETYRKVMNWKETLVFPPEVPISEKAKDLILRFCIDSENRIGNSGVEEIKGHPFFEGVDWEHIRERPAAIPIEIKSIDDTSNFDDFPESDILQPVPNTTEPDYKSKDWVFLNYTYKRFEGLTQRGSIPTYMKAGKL

Target: T1, ULK1 (UNC-51-like kinase 1), HA-tagged (UniProt O75385)
T1 sequence: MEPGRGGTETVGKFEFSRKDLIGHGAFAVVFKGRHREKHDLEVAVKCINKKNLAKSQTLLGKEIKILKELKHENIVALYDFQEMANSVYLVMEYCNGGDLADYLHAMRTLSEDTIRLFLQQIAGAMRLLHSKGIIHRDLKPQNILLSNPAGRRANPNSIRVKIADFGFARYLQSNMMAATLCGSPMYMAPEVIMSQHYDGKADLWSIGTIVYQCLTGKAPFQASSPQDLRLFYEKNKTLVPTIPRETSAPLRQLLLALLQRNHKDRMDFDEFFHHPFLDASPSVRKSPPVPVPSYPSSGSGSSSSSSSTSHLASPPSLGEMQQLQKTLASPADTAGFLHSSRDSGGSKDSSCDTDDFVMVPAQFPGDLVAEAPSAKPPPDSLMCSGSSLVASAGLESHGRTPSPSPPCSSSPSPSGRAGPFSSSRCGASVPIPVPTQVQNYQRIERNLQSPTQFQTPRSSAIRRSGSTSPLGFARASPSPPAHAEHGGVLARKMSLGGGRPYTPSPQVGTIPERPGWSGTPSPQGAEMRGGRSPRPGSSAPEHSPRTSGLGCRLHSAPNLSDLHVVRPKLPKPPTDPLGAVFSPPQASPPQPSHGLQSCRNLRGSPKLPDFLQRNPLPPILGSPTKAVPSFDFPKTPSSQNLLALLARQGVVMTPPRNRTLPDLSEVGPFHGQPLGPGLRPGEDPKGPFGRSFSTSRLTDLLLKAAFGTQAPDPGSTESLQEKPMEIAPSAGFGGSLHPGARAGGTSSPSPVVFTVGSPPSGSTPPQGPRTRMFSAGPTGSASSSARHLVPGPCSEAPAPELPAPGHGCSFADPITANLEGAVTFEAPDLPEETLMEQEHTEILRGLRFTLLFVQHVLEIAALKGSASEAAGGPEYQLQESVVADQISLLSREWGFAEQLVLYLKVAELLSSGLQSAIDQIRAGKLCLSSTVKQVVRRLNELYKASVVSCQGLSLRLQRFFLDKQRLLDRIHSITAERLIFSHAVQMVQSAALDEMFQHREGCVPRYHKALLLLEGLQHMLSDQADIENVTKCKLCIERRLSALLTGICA
Test: co-IP; HeLa cells transfected with ULK1-HA and NDR2-Flag plasmids, 48 hours; lysis buffer with 1 mM PMSF, 1 mM DTT and protease inhibitor cocktail; immunoprecipitation with Flag-tag and HA-tag mouse monoclonal antibodies overnight at 4°C, protein A/G beads 3 hours at 4°C, 5 washes with PBS; Western blot

Substance: NDR2 (nuclear Dbf2-related kinase 2), Flag-tagged (from UniProt Q9Y2H1 1-464) (enzyme)
- binding: binds
